Among the data in PubChem BioAssay AID256 (DTP/NCI, 2004) are survivor count and T/C values, retold here.

The list shows only some results of the screen, not a fair sample: it is rich in T/C values a quarter to a half above the control, in often repeated tests (any T/C) and in doses without a T/C. Other doses and runs of a compound stand elsewhere. T/C is the treated group as % of the vehicle group. Some doses have a count of surviving animals in place of a T/C: the source files T/C as zero there, which appears to mark a toxic dose or a test without result, not a measured value. Some survivor counts are full or nearly so, which does not show that the dose was tolerated: survival well below the control is almost never listed, so the zero probably covers shortened survival too. Survivors were counted at the toxicity check, usually on the fifth day, unless a day is given; later deaths do not show. Schedules are NCI's codes, read here as Q, the interval in days (D) or hours (H), X, the number of doses. Some entries were tested several times; the values are given in rising order. For survival time, the PubChem record calls one and a half times the control and up active, and a quarter to a half above the control has no call in these data; cut-offs in other NCI protocols can differ. Signs of the kind (2×) stand for listed records that agree. Some T/C values carry the count of animals alive at the toxicity check (mostly the fifth day); where none is given, no animal had died by that day.

This experiment has as its system CD2F1 mice, L1210 leukemia ip, survival T/C. Put plainly: NCI In Vivo Anticancer Drug Screen. Data for tumor model L1210 Leukemia (intraperitoneal) in CD2F1 (CDF1) mice. The following applies: higher T/C = longer survival. The method in brief:
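Each value reflects a quotient of treated over vehicle control outcomes in mice with a transplanted tumor.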

Where [1] appears, read: T/C endpoint: mean survival time, dose: 400.0 mg/kg/injection, schedule: Q04DX003 (ip), vehicle: saline with Tween-80.
Setting [2] is: T/C endpoint: mean survival time, dose: 200.0 mg/kg/injection, schedule: Q04DX002 (ip), vehicle: saline with Tween-80.
Where [3] appears, read: T/C endpoint: mean survival time, dose: 400.0 mg/kg/injection, schedule: Q04DX002 (ip), vehicle: saline with Tween-80.
Setting [4] is: T/C endpoint: mean survival time, dose: 100.0 mg/kg/injection, schedule: Q01DX009 (ip), vehicle: saline with Tween-80.
Where [5] appears, read: T/C endpoint: mean survival time, dose: 200.0 mg/kg/injection, schedule: Q04DX003 (ip), vehicle: saline with Tween-80.
The mark [6] stands for this setting: T/C endpoint: mean survival time, dose: 400.0 mg/kg/injection, schedule: Q04DX002 (ip), vehicle: saline.

As to `CN(C)N=Nc1ccc(C(F)(F)F)cc1`, the survivor count runs as follows: (T/C endpoint: mean survival time, dose: 266.0 mg/kg/injection, schedule: Q01DX009 (ip), vehicle: Klucel (hydroxypropylcellulose) (HPC)) 2 of 6; (T/C endpoint: mean survival time, dose: 400.0 mg/kg/injection, schedule: Q01DX009 (ip), vehicle: Klucel (hydroxypropylcellulose) (HPC)) 0 of 6; (T/C endpoint: mean survival time, dose: 600.0 mg/kg/injection, schedule: Q01DX009 (ip), vehicle: Klucel (hydroxypropylcellulose) (HPC)) 0 of 6.

`Clc1nc2n[nH]nc2nc1Cl`: the survivor count was 0 of 6 (T/C endpoint: mean survival time, dose: 100.0 mg/kg/injection, schedule: Q04DX003 (ip), vehicle: saline); 0 of 6 (T/C endpoint: mean survival time, dose: 200.0 mg/kg/injection, schedule: Q04DX003 (ip), vehicle: saline); 0 of 6 (T/C endpoint: mean survival time, dose: 400.0 mg/kg/injection, schedule: Q04DX003 (ip), vehicle: saline).

Turning to `COC(=O)C([NH-])c1ccccc1.COC(=O)C([NH-])c1ccccc1.[Cl][Pt+2][Cl]` (centres undefined), under “T/C endpoint: median survival time, dose: 200.0 mg/kg/injection, schedule: Q04DX003 (ip), vehicle: saline”, the survivor count is recorded as 5 of 6.

With `CCCCCOC(=S)S`, the survivor count (T/C endpoint: mean survival time, dose: 18.75 mg/kg/injection, schedule: Q04DX003 (ip), vehicle: Klucel (hydroxypropylcellulose) (HPC)) was 6 of 6; the survivor count (T/C endpoint: mean survival time, dose: 75.0 mg/kg/injection, schedule: Q04DX003 (ip), vehicle: saline sonified) is on record as 6 of 6; the survivor count (T/C endpoint: mean survival time, dose: 150.0 mg/kg/injection, schedule: Q04DX003 (ip), vehicle: saline sonified) is 1 of 6; the survivor count (T/C endpoint: mean survival time, dose: 300.0 mg/kg/injection, schedule: Q04DX003 (ip), vehicle: saline sonified) is reported as 0 of 6.

In the case of `NCc1ccc(-c2nc3ncnc(N)c3[nH]2)cc1`, the survivor count (T/C endpoint: mean survival time, dose: 25.0 mg/kg/injection, schedule: Q01DX001 (ip), vehicle: saline with Tween-80) was 3 of 6; the survivor count (T/C endpoint: mean survival time, dose: 50.0 mg/kg/injection, schedule: Q01DX001 (ip), vehicle: saline with Tween-80) is given as 2 of 6; the survivor count (T/C endpoint: mean survival time, dose: 200.0 mg/kg/injection, schedule: Q01DX001 (ip), vehicle: saline with Tween-80) is on record as 1 of 6; the survivor count (T/C endpoint: mean survival time, dose: 400.0 mg/kg/injection, schedule: Q01DX001 (ip), vehicle: saline with Tween-80) was 0 of 6.

With `O=C(O)C(NC1CCCCC1)c1ccccc1` (centres undefined), the survivor count under setting [1] is 2 of 6.

Regarding `CC1=NN(c2ccccc2)C(=O)C1N=Nc1ccc([As](=O)(O)O)c(O)c1` (centres undefined), the survivor count (T/C endpoint: mean survival time, dose: 400.0 mg/kg/injection, schedule: Q01DX009 (ip), vehicle: saline with Tween-80) was 3 of 6.

On to `CCOC(=O)C1C2CCC(O2)C1C#N` (centres undefined), for which the survivor count runs as follows: (T/C endpoint: mean survival time, dose: 100.0 mg/kg/injection, schedule: Q04DX002 (ip), vehicle: saline with Tween-80) 1 of 3; under setting [2], 1 of 3; under setting [3], 0 of 3.

Turning to `[CH3][Sn]1([CH3])[O]C2C(CO)OC(n3cnc4c(N)ncnc43)C2[O]1` (centres undefined), the survivor count is recorded as 0 of 6 (T/C endpoint: mean survival time, dose: 100.0 mg/kg/injection, schedule: Q01DX005 (ip), vehicle: other) and 0 of 6 (T/C endpoint: mean survival time, dose: 200.0 mg/kg/injection, schedule: Q01DX005 (ip), vehicle: other).

On to `CC[N+](C)(CC)CCCOC(=O)c1ccccc1Oc1ccc(C)cc1`, for which the survivor count is given as 0 of 6 (T/C endpoint: mean survival time, dose: 100.0 mg/kg/injection, schedule: Q01DX009 (ip), vehicle: saline) and 0 of 6 (T/C endpoint: mean survival time, dose: 200.0 mg/kg/injection, schedule: Q01DX009 (ip), vehicle: saline).

Regarding `O=CO.[Co]`, the survivor count (T/C endpoint: mean survival time, dose: 80.0 mg/kg/injection, schedule: Q01DX001 (ip), vehicle: saline) is listed as 3 of 6.

For the molecule `CC[N+](C)(CC)Cc1cc(C(C)=O)c(C)o1`, the survivor count runs as follows: (T/C endpoint: median survival time, dose: 100.0 mg/kg/injection, schedule: Q04DX002 (ip), vehicle: saline) 3 of 3; (T/C endpoint: median survival time, dose: 200.0 mg/kg/injection, schedule: Q04DX002 (ip), vehicle: saline) 0 of 3; (T/C endpoint: median survival time, dose: 400.0 mg/kg/injection, schedule: Q04DX002 (ip), vehicle: saline) 0 of 3.

In the case of `CCNC(=O)OCc1c(COC(=O)NCC)c(-c2ccc(Cl)c(Cl)c2)n2c1CCC2`, the T/C (T/C endpoint: mean survival time, dose: 6.25 mg/kg/injection, schedule: Q01DX009 (ip), vehicle: saline with Tween-80) is on record as 120, 122, 126, 129 % of control; the T/C (T/C endpoint: mean survival time, dose: 12.5 mg/kg/injection, schedule: Q01DX009 (ip), vehicle: saline with Tween-80) was 132, 140 (2×), 146 % of control; the T/C (T/C endpoint: mean survival time, dose: 25.0 mg/kg/injection, schedule: Q01DX009 (ip), vehicle: saline with Tween-80) is 103, 134, 137, 149 % of control. The survivor count under setting [4] is 4 of 6 and 6 of 6.

As to `CC(C)(C[P+](C)(c1ccccc1)c1ccccc1)c1ccccc1`, the survivor count reads like this: under setting [2], 3 of 3; under setting [3], 0 of 3.

`Cc1ccc2c3csc4ccccc4c-3nc2c1`: the survivor count runs as follows: (T/C endpoint: mean survival time, dose: 100.0 mg/kg/injection, schedule: Q04DX003 (ip), vehicle: acetone) 0 of 6; (T/C endpoint: mean survival time, dose: 200.0 mg/kg/injection, schedule: Q04DX003 (ip), vehicle: acetone) 1 of 6; (T/C endpoint: mean survival time, dose: 400.0 mg/kg/injection, schedule: Q04DX003 (ip), vehicle: acetone) 0 of 6.

Consider `CC1C(=O)OC(C)(C)C1(C)C` (centres undefined), for which the survivor count under setting [4] was 2 of 6, the survivor count under setting [5] is listed as 5 of 6 and the survivor count under setting [1] is reported as 0 of 6.

Regarding `FC1(F)C(Cl)=[C]([Hg][C]2=C(Cl)C(F)(F)C(F)(F)C2(F)F)C(F)(F)C1(F)F`, the survivor count was 3 of 6 (T/C endpoint: mean survival time, dose: 150.0 mg/kg/injection, schedule: Q01DX001 (ip), vehicle: saline) and 0 of 6 (T/C endpoint: mean survival time, dose: 300.0 mg/kg/injection, schedule: Q01DX001 (ip), vehicle: saline).

On to `NC(Cc1cc([N+](=O)[O-])ccc1CN(CCCl)CCCl)C(=O)O` (centres undefined), for which the T/C reads like this: (T/C endpoint: mean survival time, dose: 1.0 mg/kg/injection, schedule: Q01DX009 (ip), vehicle: Klucel (hydroxypropylcellulose) (HPC)) 133 % of control [5 of 6 alive]; (T/C endpoint: mean survival time, dose: 2.0 mg/kg/injection, schedule: Q01DX009 (ip), vehicle: Klucel (hydroxypropylcellulose) (HPC)) 139 % of control; (T/C endpoint: median survival time, dose: 3.12 mg/kg/injection, schedule: Q01DX001 (ip), vehicle: Klucel (hydroxypropylcellulose) (HPC)) 146 % of control. In addition, the survivor count runs as follows: (T/C endpoint: median survival time, dose: 3.75 mg/kg/injection, schedule: Q04DX003 (ip), vehicle: Klucel (hydroxypropylcellulose) (HPC)) 4 of 6; (T/C endpoint: median survival time, dose: 6.25 mg/kg/injection, schedule: Q01DX001 (ip), vehicle: Klucel (hydroxypropylcellulose) (HPC)) 4 of 6; (T/C endpoint: median survival time, dose: 7.5 mg/kg/injection, schedule: Q04DX003 (ip), vehicle: Klucel (hydroxypropylcellulose) (HPC)) 4 of 6; (T/C endpoint: median survival time, dose: 12.5 mg/kg/injection, schedule: Q01DX001 (ip), vehicle: Klucel (hydroxypropylcellulose) (HPC)) 2 of 6; (T/C endpoint: median survival time, dose: 15.0 mg/kg/injection, schedule: Q04DX003 (ip), vehicle: Klucel (hydroxypropylcellulose) (HPC)) 1 of 6; (T/C endpoint: median survival time, dose: 25.0 mg/kg/injection, schedule: Q01DX001 (ip), vehicle: Klucel (hydroxypropylcellulose) (HPC)) 1 of 6.

As to `SCC1=NCCN1`, the survivor count runs as follows: (T/C endpoint: mean survival time, dose: 200.0 mg/kg/injection, schedule: Q04DX002 (ip), vehicle: saline) 0 of 3; under setting [6], 0 of 3.

Consider `CCCCOc1ccc(NC(=O)CCl)cc1`, for which the survivor count under setting [4] is given as 1 of 6.

Consider `Nc1c([N+](=O)[O-])cncc1[N+](=O)[O-]`, for which the survivor count is, setting by setting: (T/C endpoint: mean survival time, dose: 100.0 mg/kg/injection, schedule: Q04DX003 (ip), vehicle: saline with Tween-80) 0 of 6; under setting [5], 0 of 6; under setting [1], 0 of 6.

For `COCc1nnc2nc[nH]c(=O)c2n1`, the survivor count (T/C endpoint: mean survival time, dose: 400.0 mg/kg/injection, schedule: Q01DX001 (ip), vehicle: carboxymethylcellulose (CMC)) is listed as 1 of 6.

`O=C(O)CNCNCC(=O)O`: the survivor count under setting [6] is listed as 1 of 3.
